Data: US8053627B2, “Methods for treating demyelination disorders” (University of Chicago, priority 2005, dated 2011)

System: EAE demyelinating lesions
Test: EAE, CNS delivery of INF-γ at the recovery stage (doxycycline withdrawn at PID7)
Type: in vivo, mice
Source text: Double transgenic mice that allow for temporally regulated delivery of INF-γ to the CNS (Lin et al., J Neurosci 24:10074-10083 (2004)) were used to assess the role of INF-γ in the pathogenesis of EAE. GFAP/tTA; TRE/IFN-γ double transgenic mice, as described in Example 1 were used to determine the effect of INF-γ on the demyelination caused by EAE. All mice were fed doxycycline from the day of conception to repress the expression of INF-γ, and were immunized with myelin oligodendrocyte protein (MOG35-55) to induce EAE. AT day 7 postimmunization (PID7), doxycycline was withdrawn from the experimental group (PID7 DOX−).
The level of INF-γ was determined in the control (DOX+) and the PID7 DOX− mice using an ELISA immunoassay as described in Example 1, and the severity of the disease was assessed as a function of a clinical score. Clinical severity scores were recorded daily according to a 0-5 point scale, where 0=healthy, 1=flaccid tail, 2=ataxia and/or paresis of hind limbs, 3=paralysis of hind limbs and/or paresis of forelimbs, 4=tetraparalysis, and 5=moribund or dead.
The spinal cord from DOX+ and DOX− animals with EAE was immunostained for MBP, and the remyelination of axons was evaluated. The number of oligodendrocytes was determined in the spine from DOX+ and DOX− mice as the number of CC1 positive cells. […]

Substance: IFN-γ: pleotropic cytokine secreted by activated T lymphocytes and natural killer cells; delivered to the CNS by transgene or added as recombinant protein
- level of INF-γ (ELISA) (DOX− mice, PID50): 40.24 pg/mg
- level of INF-γ (ELISA) (both DOX+ and DOX− mice, peak of disease PID17): 60 pg/mg
